PMC9355226
No constants are given. Whether binding was seen depends on the method and setting. Some results given as binding are weak or reduced against the parent protein; the word gives no strength.

Sequences of proteins named here, by UniProt entry; tags and fusion partners are left off.
UniProt Q96CV9: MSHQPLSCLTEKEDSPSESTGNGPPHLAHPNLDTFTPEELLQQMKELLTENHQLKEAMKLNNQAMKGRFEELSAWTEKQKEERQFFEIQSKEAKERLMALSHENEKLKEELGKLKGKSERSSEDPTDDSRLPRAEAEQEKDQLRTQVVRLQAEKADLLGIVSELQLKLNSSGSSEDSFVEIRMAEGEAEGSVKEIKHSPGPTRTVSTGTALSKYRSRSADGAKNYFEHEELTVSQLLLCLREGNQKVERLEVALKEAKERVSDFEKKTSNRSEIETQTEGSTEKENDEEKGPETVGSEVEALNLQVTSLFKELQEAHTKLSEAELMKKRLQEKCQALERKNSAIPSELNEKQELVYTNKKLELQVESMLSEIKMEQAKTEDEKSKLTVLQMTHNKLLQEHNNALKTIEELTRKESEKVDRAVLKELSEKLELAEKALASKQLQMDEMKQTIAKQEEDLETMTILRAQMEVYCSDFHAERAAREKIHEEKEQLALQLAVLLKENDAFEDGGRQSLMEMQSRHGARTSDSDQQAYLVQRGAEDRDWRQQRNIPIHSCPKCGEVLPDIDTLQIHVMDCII

Each substance was assayed against CFP-TRIM32 (human) (UniProt Q13049) (assay: sorting of fluorescent cytoplasmic bodies with a cell sorter, then LC-MS/MS; HEK293 cells transfected with CFP-TRIM32, lysed in buffer with 1% Triton X-100 and 150 mM NaCl, sonicated; particles sorted by CFP, FSC and BSC gates (larger than 1.5 um); 10,000 particles solubilised, digested with trypsin, LC-MS/MS; control: naive HEK293 cells; hits with ratio >2 over the control).

Substance | binding
p62 (from UniProt Q13501 1-440) | no binding
OPTN (from UniProt Q96CV9 1-577) | no binding
desmin (from UniProt P17661 1-470) | binds
